In this experiment the test system is native GABAA receptors of guinea pig myenteric neurons. The experiment can be described thus: Whole-cell recordings of membrane currents induced by GABA (IGABA) in cultured myenteric neurons. The format is cell-based. From the text: Guinea pigs (100–200 g; either male or female) were sacrificed by cervical dislocation and carotid exsanguination. These methods have been approved by the Animal Care Committee of the IPICYT and are in agreement with the published Guiding Principles in the Care and Use of Animals, approved by the American Physiological Society. A segment of ~10 cm of the jejunum was removed and placed in a modified Krebs solution (in mM: NaCl, 126; NaH2PO4, 1.2; MgCl2, 1.2; CaCl2, 2.5; KCl, 5; NaH2CO3, 25; glucose, 11. The sample was gassed under 95% O2 and 5% CO2) and opened longitudinally. […]
All experiments were conducted using standard solutions with the following compositions (in mM); inside the pipette: CsCl, 160; EGTA, 10; HEPES, 5; NaCl, 10; ATPMg, 3 and GTP, 0.1; external solution: NaCl, 160; CaCl2, 2; glucose, 11; HEPES, 5 and CsCl, 3. […] The whole-cell current data were recorded on a PC using the AxoScope software (Axon Instruments, Inc.) and were analyzed using the AXOGRAPH software (Molecular Devices, CA, USA). […] A control tube was positioned ~300 μm in front of the recorded neuron, and substances were applied externally by abruptly interchanging the tube for another tube containing the control solution plus the drug(s). […]

The structures appear in SMILES notation. Like-named read-outs stand apart in the source and are kept apart here.

On to `NCCCC(=O)O` [GABA], for which the EC50 was determined as 127 ± 16 µM (read-out: EC50 of GABA concentration-response curve) and 115 ± 10 µM (read-out: EC50 of GABA-induced inward currents (IGABA)).

These data come from publication PMC6270094, “Dibenzo[1,2,5]thiadiazepines Are Non-Competitive GABAA Receptor Antagonists” (Molecules, 2013).
